Reference: the supplement of paper PMC12823440, “Inhibitors supercharge kinase turnover through native proteolytic circuits” (Nature, 2025)
Structures can show the parent of a compound that is named as a salt. Some of the results follow. The calls rarely recur for the same compound in another form.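 In K562 cells expressing nanoluciferase-fused kinases, luminescence was recorded at 4 h intervals between 2 and 18 h, normalized as percent of control with DMSO at 100% and a positive control at 0%. A significant (2 sigma) signal drop marks a time point as decreased. The authors' rule for a hit is not shown and takes in more than the number of time points.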

Amino acid sequences for entries named in this document (tags omitted).
UniProt P29317, whole entry: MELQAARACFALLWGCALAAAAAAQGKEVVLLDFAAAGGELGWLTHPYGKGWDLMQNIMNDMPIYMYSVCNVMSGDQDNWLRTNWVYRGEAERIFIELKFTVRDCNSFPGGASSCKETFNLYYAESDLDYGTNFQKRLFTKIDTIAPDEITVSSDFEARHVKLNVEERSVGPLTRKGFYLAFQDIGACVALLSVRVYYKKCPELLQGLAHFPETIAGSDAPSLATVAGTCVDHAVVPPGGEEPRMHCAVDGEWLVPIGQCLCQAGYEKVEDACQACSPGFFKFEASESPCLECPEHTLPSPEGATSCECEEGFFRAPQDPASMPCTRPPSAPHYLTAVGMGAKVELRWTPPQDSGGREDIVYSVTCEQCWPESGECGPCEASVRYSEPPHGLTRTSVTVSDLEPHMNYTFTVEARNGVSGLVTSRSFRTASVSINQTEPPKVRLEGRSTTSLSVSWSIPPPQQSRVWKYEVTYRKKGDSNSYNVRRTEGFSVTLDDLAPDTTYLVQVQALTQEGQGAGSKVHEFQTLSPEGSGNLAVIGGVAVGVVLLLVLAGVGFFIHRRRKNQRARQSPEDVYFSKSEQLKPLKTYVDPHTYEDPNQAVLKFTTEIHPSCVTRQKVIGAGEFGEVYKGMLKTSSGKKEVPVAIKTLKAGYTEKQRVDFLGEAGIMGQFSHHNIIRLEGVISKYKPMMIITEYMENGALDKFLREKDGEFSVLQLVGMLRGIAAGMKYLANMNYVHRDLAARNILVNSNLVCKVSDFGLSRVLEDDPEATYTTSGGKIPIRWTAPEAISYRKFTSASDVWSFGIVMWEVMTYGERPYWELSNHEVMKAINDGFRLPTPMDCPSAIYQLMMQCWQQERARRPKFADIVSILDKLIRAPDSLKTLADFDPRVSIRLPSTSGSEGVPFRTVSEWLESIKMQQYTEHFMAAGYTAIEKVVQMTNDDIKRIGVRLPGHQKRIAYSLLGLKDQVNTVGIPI
UniProt P21860, whole entry: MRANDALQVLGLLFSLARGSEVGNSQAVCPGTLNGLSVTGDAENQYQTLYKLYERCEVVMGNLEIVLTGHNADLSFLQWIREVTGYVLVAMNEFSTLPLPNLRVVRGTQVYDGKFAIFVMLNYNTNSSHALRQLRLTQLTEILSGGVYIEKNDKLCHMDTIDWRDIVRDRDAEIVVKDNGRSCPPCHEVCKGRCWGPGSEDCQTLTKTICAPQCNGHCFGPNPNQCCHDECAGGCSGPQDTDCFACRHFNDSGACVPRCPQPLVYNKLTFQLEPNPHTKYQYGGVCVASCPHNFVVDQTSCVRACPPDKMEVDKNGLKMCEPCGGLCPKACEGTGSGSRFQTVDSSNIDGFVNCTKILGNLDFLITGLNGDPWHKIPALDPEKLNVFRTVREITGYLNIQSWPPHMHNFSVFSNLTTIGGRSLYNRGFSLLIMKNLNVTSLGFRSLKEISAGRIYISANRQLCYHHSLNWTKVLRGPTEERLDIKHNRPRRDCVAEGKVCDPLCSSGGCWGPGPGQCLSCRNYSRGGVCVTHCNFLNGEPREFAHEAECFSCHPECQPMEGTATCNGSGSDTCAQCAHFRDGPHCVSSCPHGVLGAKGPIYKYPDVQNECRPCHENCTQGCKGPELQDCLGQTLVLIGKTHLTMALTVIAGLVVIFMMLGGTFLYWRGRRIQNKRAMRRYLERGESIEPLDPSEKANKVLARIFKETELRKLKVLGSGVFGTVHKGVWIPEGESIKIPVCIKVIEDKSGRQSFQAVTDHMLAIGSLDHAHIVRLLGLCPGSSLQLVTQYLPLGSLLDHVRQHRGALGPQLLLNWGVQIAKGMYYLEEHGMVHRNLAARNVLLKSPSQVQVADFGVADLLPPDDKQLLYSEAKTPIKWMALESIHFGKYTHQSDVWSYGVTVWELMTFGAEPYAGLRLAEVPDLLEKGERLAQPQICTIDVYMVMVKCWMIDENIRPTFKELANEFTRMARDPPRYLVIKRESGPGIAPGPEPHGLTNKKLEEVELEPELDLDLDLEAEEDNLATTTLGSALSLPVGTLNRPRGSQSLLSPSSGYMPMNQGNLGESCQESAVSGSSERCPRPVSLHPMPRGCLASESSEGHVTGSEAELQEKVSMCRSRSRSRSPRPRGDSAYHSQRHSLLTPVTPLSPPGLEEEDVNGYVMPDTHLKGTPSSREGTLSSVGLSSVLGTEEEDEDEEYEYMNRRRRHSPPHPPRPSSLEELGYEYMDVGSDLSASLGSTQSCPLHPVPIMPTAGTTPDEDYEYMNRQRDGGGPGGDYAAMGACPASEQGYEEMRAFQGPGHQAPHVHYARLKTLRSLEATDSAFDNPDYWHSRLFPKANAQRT
UniProt Q15303, whole entry R711C: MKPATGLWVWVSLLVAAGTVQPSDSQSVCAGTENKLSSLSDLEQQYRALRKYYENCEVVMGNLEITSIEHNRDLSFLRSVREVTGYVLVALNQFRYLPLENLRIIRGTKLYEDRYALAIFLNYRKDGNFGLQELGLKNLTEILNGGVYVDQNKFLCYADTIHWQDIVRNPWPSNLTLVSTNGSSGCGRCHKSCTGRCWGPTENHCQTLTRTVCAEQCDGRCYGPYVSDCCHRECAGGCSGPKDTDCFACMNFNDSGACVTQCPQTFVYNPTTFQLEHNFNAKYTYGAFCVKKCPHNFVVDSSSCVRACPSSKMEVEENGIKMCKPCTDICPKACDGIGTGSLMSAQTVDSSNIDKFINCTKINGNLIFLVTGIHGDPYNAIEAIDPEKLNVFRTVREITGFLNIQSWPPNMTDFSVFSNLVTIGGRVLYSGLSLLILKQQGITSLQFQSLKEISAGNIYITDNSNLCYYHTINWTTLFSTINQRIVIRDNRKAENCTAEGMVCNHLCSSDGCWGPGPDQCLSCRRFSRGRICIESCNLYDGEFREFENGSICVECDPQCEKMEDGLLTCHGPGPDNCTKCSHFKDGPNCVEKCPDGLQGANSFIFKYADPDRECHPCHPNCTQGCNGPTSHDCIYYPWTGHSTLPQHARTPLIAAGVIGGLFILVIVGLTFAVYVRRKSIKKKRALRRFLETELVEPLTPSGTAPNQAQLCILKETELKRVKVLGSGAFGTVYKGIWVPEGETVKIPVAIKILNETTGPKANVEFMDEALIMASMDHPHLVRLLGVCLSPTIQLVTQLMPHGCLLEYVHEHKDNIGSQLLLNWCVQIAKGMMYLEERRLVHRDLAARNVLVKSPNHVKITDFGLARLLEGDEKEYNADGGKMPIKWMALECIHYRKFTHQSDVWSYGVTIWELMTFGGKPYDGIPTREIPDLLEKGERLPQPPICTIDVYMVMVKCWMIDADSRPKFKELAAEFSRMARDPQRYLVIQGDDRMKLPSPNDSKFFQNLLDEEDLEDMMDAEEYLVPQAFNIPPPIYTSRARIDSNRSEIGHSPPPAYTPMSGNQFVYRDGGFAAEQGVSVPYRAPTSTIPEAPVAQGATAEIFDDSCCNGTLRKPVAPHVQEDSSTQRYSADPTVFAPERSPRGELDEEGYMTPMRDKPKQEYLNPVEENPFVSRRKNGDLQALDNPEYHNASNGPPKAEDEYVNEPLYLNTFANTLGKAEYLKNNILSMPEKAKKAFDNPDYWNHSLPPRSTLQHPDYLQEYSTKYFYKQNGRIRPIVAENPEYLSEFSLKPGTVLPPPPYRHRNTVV

How the values were obtained:
Test in all cases: kinase-Nluc reporter destabilization hit call (1 = scored as downregulated) (binary); higher = compound decreases kinase abundance
Conditions in all cases: K562, 2-18 h
EGFR = EGFR (UniProt P00533)
EGFR_G719S = EGFR_G719S (UniProt P00533)
EGFR_G719S_T790M = EGFR_G719S_T790M (UniProt P00533)
EGFR_L718V = EGFR_L718V (UniProt P00533)
EGFR_L858R = EGFR_L858R (UniProt P00533)
EGFR_L861Q = EGFR_L861Q (UniProt P00533)
EGFR_T790M = EGFR_T790M (UniProt P00533)
EPHA2 = EPHA2 (UniProt P29317)
ERBB3 = ERBB3 (UniProt P21860)
[1] = target: ERBB4_R711C (clone: ERBB4_mut) (UniProt Q15303)

Row | Compound | kinase-Nluc reporter destabilization hit call (EGFR; 2.5 µM) | kinase-Nluc reporter destabilization hit call (EGFR_G719S; 2.5 µM) | kinase-Nluc reporter destabilization hit call (EGFR_G719S_T790M; 2.5 µM) | kinase-Nluc reporter destabilization hit call (EGFR_L718V; 2.5 µM) | kinase-Nluc reporter destabilization hit call (EGFR_L858R; 2.5 µM) | kinase-Nluc reporter destabilization hit call (EGFR_L861Q; 2.5 µM) | kinase-Nluc reporter destabilization hit call (EGFR_T790M; 2.5 µM) | kinase-Nluc reporter destabilization hit call (EPHA2; 2.5 µM) | kinase-Nluc reporter destabilization hit call (ERBB3; 2.5 µM) | kinase-Nluc reporter destabilization hit call ([1]; 2.5 µM) | kinase-Nluc reporter destabilization hit call (EGFR; 10 µM) | kinase-Nluc reporter destabilization hit call (EGFR_G719S; 10 µM) | kinase-Nluc reporter destabilization hit call (EGFR_G719S_T790M; 10 µM) | kinase-Nluc reporter destabilization hit call (EGFR_L718V; 10 µM) | kinase-Nluc reporter destabilization hit call (EGFR_L858R; 10 µM) | kinase-Nluc reporter destabilization hit call (EGFR_L861Q; 10 µM) | kinase-Nluc reporter destabilization hit call (EGFR_T790M; 10 µM) | kinase-Nluc reporter destabilization hit call (EPHA2; 10 µM) | kinase-Nluc reporter destabilization hit call (ERBB3; 10 µM) | kinase-Nluc reporter destabilization hit call ([1]; 10 µM)
1 | CC(C)Oc1ccc(-c2nn([C@@H](C)c3oc4ccc(F)cc4c(=O)c3-c3cccc(F)c3)c3ncnc(N)c23)cc1F [Umbralisib (hydrochloride)] | inactive: 0 | inactive: 0 | inactive: 0 | inactive: 0 | inactive: 0 | inactive: 0 | inactive: 0 | inactive: 0 | inactive: 0 | inactive: 0 | – | – | – | – | – | – | – | – | – | –
2 | COc1cc(/C=C/C(=O)O)ccc1O [Ferulic acid (sodium)] | – | – | – | – | – | – | – | – | – | – | inactive: 0 | inactive: 0 | inactive: 0 | inactive: 0 | inactive: 0 | inactive: 0 | inactive: 0 | inactive: 0 | inactive: 0 | inactive: 0
3 | COc1cc2c(-c3cnn4cc(N5CCC(N6CCN(C)CC6)CC5)cnc34)ccnc2cc1F [ALK2-IN-4 (succinate)] | – | – | – | – | – | – | – | – | – | – | inactive: 0 | inactive: 0 | inactive: 0 | inactive: 0 | inactive: 0 | inactive: 0 | inactive: 0 | inactive: 0 | inactive: 0 | inactive: 0
4 | c1cc(-c2cnn3cc(-c4ccc(OCCN5CCCCC5)cc4)cnc23)ccn1 [Dorsomorphin (dihydrochloride)] | inactive: 0 | inactive: 0 | inactive: 0 | inactive: 0 | inactive: 0 | inactive: 0 | inactive: 0 | inactive: 0 | inactive: 0 | inactive: 0 | – | – | – | – | – | – | – | – | – | –
5 | CCS(=O)(=O)N1CCN(c2ccc(Nc3ncc(C(N)=O)c(NC4CC4)n3)cc2)CC1 [Cerdulatinib] | – | – | – | – | – | – | – | – | – | – | inactive: 0 | inactive: 0 | inactive: 0 | inactive: 0 | inactive: 0 | inactive: 0 | inactive: 0 | inactive: 0 | inactive: 0 | inactive: 0
6 | CCN(CC)CC(=O)Nc1c(C)cccc1C [Lidocaine] | – | – | – | – | – | – | – | – | – | – | inactive: 0 | inactive: 0 | inactive: 0 | inactive: 0 | inactive: 0 | inactive: 0 | inactive: 0 | inactive: 0 | inactive: 0 | inactive: 0
7 | Cn1cc(-c2cnc3ccc4ccc(CS(=O)(=O)NCc5ccccn5)cc4c(=O)c3c2)cn1 | – | – | – | – | – | – | – | – | – | – | inactive: 0 | inactive: 0 | inactive: 0 | inactive: 0 | inactive: 0 | inactive: 0 | inactive: 0 | inactive: 0 | inactive: 0 | inactive: 0
8 | O=C(Nc1ccncc1)Nc1ccc(-c2nc(N3CCOCC3)nc(N3C4CCC3COC4)n2)cc1 [PKI-179 (hydrochloride)] | inactive: 0 | inactive: 0 | inactive: 0 | inactive: 0 | inactive: 0 | inactive: 0 | inactive: 0 | inactive: 0 | inactive: 0 | inactive: 0 | – | – | – | – | – | – | – | – | – | –
9 | Oc1cccc(-c2nc(N3CCOCC3)c3oc4ncccc4c3n2)c1 [PI-103 (Hydrochloride)] | inactive: 0 | inactive: 0 | inactive: 0 | inactive: 0 | inactive: 0 | inactive: 0 | inactive: 0 | inactive: 0 | inactive: 0 | inactive: 0 | – | – | – | – | – | – | – | – | – | –
10 | COc1cc2c(cc1OC)-c1c(C)c3ccc(OC)c(OC)c3c[n+]1CC2 [Dehydrocorydaline] | – | – | – | – | – | – | – | – | – | – | inactive: 0 | inactive: 0 | inactive: 0 | inactive: 0 | inactive: 0 | inactive: 0 | inactive: 0 | inactive: 0 | inactive: 0 | inactive: 0
11 | c1cc(-c2cnn3cc(-c4ccc(OCCN5CCCCC5)cc4)cnc23)ccn1 [Dorsomorphin] | inactive: 0 | inactive: 0 | inactive: 0 | inactive: 0 | inactive: 0 | inactive: 0 | inactive: 0 | inactive: 0 | inactive: 0 | inactive: 0 | – | – | – | – | – | – | – | – | – | –
12 | O=C(Nc1ccncc1)Nc1ccc(-c2nc(N3CCOCC3)nc(N3C4CCC3COC4)n2)cc1 | – | – | – | – | – | – | – | – | – | – | inactive: 0 | inactive: 0 | inactive: 0 | inactive: 0 | inactive: 0 | inactive: 0 | inactive: 0 | inactive: 0 | inactive: 0 | inactive: 0
13 | C[C@H](CCC(=O)NCCS(=O)(=O)O)[C@H]1CC[C@H]2[C@@H]3[C@@H](O)C[C@@H]4C[C@H](O)CC[C@]4(C)[C@H]3CC[C@]12C [Tauroursodeoxycholate (sodium)] | – | – | – | – | – | – | – | – | – | – | inactive: 0 | inactive: 0 | inactive: 0 | inactive: 0 | inactive: 0 | inactive: 0 | inactive: 0 | inactive: 0 | inactive: 0 | inactive: 0
14 | C=CC(=O)Nc1cc(Nc2nccc(-c3cn(C4CC4)c4ccccc34)n2)c(OC)cc1N(C)CCN(C)C [Almonertinib (hydrochloride)] | inactive: 0 | inactive: 0 | inactive: 0 | inactive: 0 | inactive: 0 | inactive: 0 | inactive: 0 | inactive: 0 | inactive: 0 | inactive: 0 | – | – | – | – | – | – | – | – | – | –
15 | COc1cc2c(-c3cnn4cc(N5CCC(N6CCN(C)CC6)CC5)cnc34)ccnc2cc1F | – | – | – | – | – | – | – | – | – | – | inactive: 0 | inactive: 0 | inactive: 0 | inactive: 0 | inactive: 0 | inactive: 0 | inactive: 0 | inactive: 0 | inactive: 0 | inactive: 0
16 | N#CC[C@H](C1CCCC1)n1cc(-c2ncnc3[nH]ccc23)cn1 [Ruxolitinib] | – | – | – | – | – | – | – | – | – | – | inactive: 0 | inactive: 0 | inactive: 0 | inactive: 0 | inactive: 0 | inactive: 0 | active: 1 | inactive: 0 | inactive: 0 | inactive: 0
17 | CS(=O)(=O)N1CCN(Cc2cc3nc(-c4cccc5[nH]ncc45)nc(N4CCOCC4)c3s2)CC1 [Pictilisib (dimethanesulfonate)] | – | – | – | – | – | – | – | – | – | – | inactive: 0 | inactive: 0 | inactive: 0 | inactive: 0 | inactive: 0 | inactive: 0 | inactive: 0 | inactive: 0 | inactive: 0 | inactive: 0
18 | CC(=O)N[C@H](Cc1ccc(O)cc1)C(=O)N[C@H](CCCN=C(N)N)C(=O)N[C@H](Cc1ccccc1)C(N)=O | – | – | – | – | – | – | – | – | – | – | inactive: 0 | inactive: 0 | inactive: 0 | inactive: 0 | inactive: 0 | inactive: 0 | inactive: 0 | inactive: 0 | inactive: 0 | inactive: 0
19 | Cc1cccc(/C=N/Nc2cc(N3CCOCC3)nc(OCCc3ccccn3)n2)c1 [Apilimod (mesylate)] | – | – | – | – | – | – | – | – | – | – | inactive: 0 | inactive: 0 | inactive: 0 | inactive: 0 | inactive: 0 | inactive: 0 | inactive: 0 | inactive: 0 | inactive: 0 | inactive: 0
20 | COCCOc1cc(F)c2c(Nc3ccc(NC(=O)Cn4cc(C(C)C)nn4)cc3)ncnc2c1 [AZD3229 Tosylate] | – | – | – | – | – | – | – | – | – | – | inactive: 0 | inactive: 0 | inactive: 0 | inactive: 0 | inactive: 0 | inactive: 0 | inactive: 0 | inactive: 0 | inactive: 0 | inactive: 0
21 | CC(C)Nc1cc(-c2c[nH]c(C(=O)N[C@H](CO)c3cccc(Cl)c3)c2)c(Cl)cn1 [Ulixertinib (hydrochloride)] | – | – | – | – | – | – | – | – | – | – | inactive: 0 | inactive: 0 | inactive: 0 | inactive: 0 | inactive: 0 | inactive: 0 | inactive: 0 | inactive: 0 | inactive: 0 | inactive: 0
22 | O=C1Nc2ccccc2/C1=C/c1ccccn1 [(E/Z)-GSK-3β inhibitor 1] | – | – | – | – | – | – | – | – | – | – | inactive: 0 | inactive: 0 | inactive: 0 | inactive: 0 | inactive: 0 | inactive: 0 | inactive: 0 | inactive: 0 | inactive: 0 | inactive: 0
23 | CC(C)NC[C@@H](C(=O)N1CCN(c2ncnc3c2[C@H](C)C[C@H]3O)CC1)c1ccc(Cl)cc1 [Ipatasertib (dihydrochloride)] | – | – | – | – | – | – | – | – | – | – | inactive: 0 | inactive: 0 | inactive: 0 | inactive: 0 | inactive: 0 | inactive: 0 | inactive: 0 | inactive: 0 | inactive: 0 | inactive: 0
24 | COc1cc2c(Oc3ccc4[nH]c(C)cc4c3F)ncnc2cc1OCCCN1CCCC1 [Cediranib (maleate)] | inactive: 0 | inactive: 0 | inactive: 0 | inactive: 0 | inactive: 0 | inactive: 0 | inactive: 0 | inactive: 0 | inactive: 0 | inactive: 0 | – | – | – | – | – | – | – | – | – | –
25 | C/C=C1\C(=O)C[C@H]2[C@@H]3CCC4=CC(=O)CC[C@]4(C)[C@H]3CC[C@]12C [Guggulsterone] | – | – | – | – | – | – | – | – | – | – | inactive: 0 | inactive: 0 | inactive: 0 | inactive: 0 | inactive: 0 | inactive: 0 | inactive: 0 | inactive: 0 | inactive: 0 | inactive: 0
26 | Cc1ccc(NC(=O)c2ccc(CN3CCN(C)CC3)cc2)cc1Nc1nc(-c2cccnc2)cs1 [Masitinib (mesylate)] | inactive: 0 | inactive: 0 | inactive: 0 | inactive: 0 | inactive: 0 | inactive: 0 | inactive: 0 | inactive: 0 | inactive: 0 | inactive: 0 | – | – | – | – | – | – | – | – | – | –
27 | CNC(=O)c1cc(Oc2ccc(NC(=O)Nc3ccc(Cl)c(C(F)(F)F)c3)c(F)c2)ccn1 [Regorafenib] | inactive: 0 | inactive: 0 | inactive: 0 | inactive: 0 | inactive: 0 | inactive: 0 | inactive: 0 | inactive: 0 | inactive: 0 | inactive: 0 | – | – | – | – | – | – | – | – | – | –
28 | C[C@H](Nc1cc(-c2cnn(C)c2)cc(Nc2cnccn2)n1)c1ccc(F)cc1 [Ilginatinib hydrochloride] | inactive: 0 | inactive: 0 | inactive: 0 | inactive: 0 | inactive: 0 | active: 1 | inactive: 0 | inactive: 0 | active: 1 | inactive: 0 | – | – | – | – | – | – | – | – | – | –
29 | N=C(N)NC(=O)c1nc(Cl)c(N)nc1N [Amiloride hydrochloride dihydrate] | – | – | – | – | – | – | – | – | – | – | inactive: 0 | inactive: 0 | inactive: 0 | inactive: 0 | inactive: 0 | inactive: 0 | inactive: 0 | inactive: 0 | inactive: 0 | inactive: 0

Single records (already shown). Order of values: kinase-Nluc reporter destabilization hit call (EGFR; 2.5 µM) | kinase-Nluc reporter destabilization hit call (EGFR_G719S; 2.5 µM) | kinase-Nluc reporter destabilization hit call (EGFR_G719S_T790M; 2.5 µM) | kinase-Nluc reporter destabilization hit call (EGFR_L718V; 2.5 µM) | kinase-Nluc reporter destabilization hit call (EGFR_L858R; 2.5 µM) | kinase-Nluc reporter destabilization hit call (EGFR_L861Q; 2.5 µM) | kinase-Nluc reporter destabilization hit call (EGFR_T790M; 2.5 µM) | kinase-Nluc reporter destabilization hit call (EPHA2; 2.5 µM) | kinase-Nluc reporter destabilization hit call (ERBB3; 2.5 µM) | kinase-Nluc reporter destabilization hit call ([1]; 2.5 µM) | kinase-Nluc reporter destabilization hit call (EGFR; 10 µM) | kinase-Nluc reporter destabilization hit call (EGFR_G719S; 10 µM) | kinase-Nluc reporter destabilization hit call (EGFR_G719S_T790M; 10 µM) | kinase-Nluc reporter destabilization hit call (EGFR_L718V; 10 µM) | kinase-Nluc reporter destabilization hit call (EGFR_L858R; 10 µM) | kinase-Nluc reporter destabilization hit call (EGFR_L861Q; 10 µM) | kinase-Nluc reporter destabilization hit call (EGFR_T790M; 10 µM) | kinase-Nluc reporter destabilization hit call (EPHA2; 10 µM) | kinase-Nluc reporter destabilization hit call (ERBB3; 10 µM) | kinase-Nluc reporter destabilization hit call ([1]; 10 µM)
COc1cc2c(cc1OC)-c1c(C)c3ccc(OC)c(OC)c3c[n+]1CC2 [Dehydrocorydaline] is listed as – | – | – | – | – | – | – | – | – | – | inactive: 0 | inactive: 0 | inactive: 0 | inactive: 0 | inactive: 0 | inactive: 0 | inactive: 0 | inactive: 0 | inactive: 0 | inactive: 0
CCS(=O)(=O)N1CCN(c2ccc(Nc3ncc(C(N)=O)c(NC4CC4)n3)cc2)CC1 [Cerdulatinib] is listed as – | – | – | – | – | – | – | – | – | – | inactive: 0 | inactive: 0 | inactive: 0 | inactive: 0 | inactive: 0 | inactive: 0 | inactive: 0 | inactive: 0 | inactive: 0 | inactive: 0
